Experimental data as given in patent US8258215B2, “Mixed alkyl-alkylaryl-phenyl phosphite polymer additive” (Dover Chemical Corporation, priority 2010, dated 2012).

Conditions: 60° C., 1st pass material

Substance	YI (Yellowness Index) Color, Gas Fade, 0 hrs.	YI (Yellowness Index) Color, Gas Fade, 24 hrs.	YI (Yellowness Index) Color, Gas Fade, 48 hrs.	YI (Yellowness Index) Color, Gas Fade, 72 hrs.
Mixed C10 alkyl, p-cumylphenyl phosphite [Example 3]	−4.4	−1.4	1.4	5.0
Mixed C12-14 Alkyl, 2,4-dicumylphenyl Phosphite [Example 10]	−5.8	−2.5	1.1	4.1
Mixed C12-14 alkyl, p-cumylphenyl phosphite [Example 2]	−5.6	−2.8	−1.0	1.4
Mixed C12-18 alkyl, p-cumylphenyl phosphite [Example 7]	−5.4	−3.4	−2.1	−1.0
Mixed C16-18 alkyl, p-cumylphenyl phosphite [Example 6]	−3.5	−0.9	0.6	2.4
Mixed C18 alkenyl, p-cumylphenyl phosphite [Example 4]	−5.6	−2.4	0.3	1.9
tris(nonylphenyl)phosphite [TNPP, reference compound]	−3.7	−2.4	−1.2	0.7
